{"source": "PubChem BioAssay AID743458 (Peter MacCallum Cancer Centre, 2014)", "test": "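Find knock-downs that make vorinostat-resistant colon cancer cells sensitive again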 (follow-up of hits)", "system": "human HCT116-VR colon cancer cells made resistant to vorinostat", "reagents": "single siRNA or pool against human genes, 25 nM per single siRNA", "duration": "about 72 h after transfection, including 24 h of drug", "challenge": "vorinostat, 2.5 µM final, for 24 h", "detection": "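Live-cell fluorescent viability and luminescent caspase 3/7 activity after vorinostat treatment, background subtracted, mean of duplicate plates, as fold change over mock-transfected wells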", "scale": "viability relative to mock: higher = more living cells than mock; caspase activity relative to mock: higher = more apoptosis than mock", "hit rule": "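Active means a reduced-viability or caspase-activation class, anything else inactive; classes could only be given to wells that looked healthy when left untreated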", "note": "The deposit covers about 1,800 reagents; shown is a random part of them. 732 of them (41%) count as active. 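Calls are per siRNA reagent; a gene was deemed confirmed only if most of its four siRNAs scored.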 Reagents against one gene are numbered here."}
{"gene knocked down": "ATP6V1B2 (ATPase H+ transporting V1 subunit B2)", "reagent no.": 1, "viability relative to mock": 0.94, "caspase activity relative to mock": 1.2, "viability hit class": "no change", "caspase hit class": "no change", "Outcome": "inactive"}
{"gene knocked down": "ATP6V1B2 (ATPase H+ transporting V1 subunit B2)", "reagent no.": 2, "viability relative to mock": 0.33, "caspase activity relative to mock": 4.65, "viability hit class": "reduced viability", "caspase hit class": "caspase activation", "Outcome": "active"}
{"gene knocked down": "ATP6V1B2 (ATPase H+ transporting V1 subunit B2)", "reagent no.": 3, "viability relative to mock": 0.94, "caspase activity relative to mock": 0.97, "viability hit class": "no change", "caspase hit class": "no change", "Outcome": "inactive"}
{"gene knocked down": "ATP6V1B2 (ATPase H+ transporting V1 subunit B2)", "reagent no.": 4, "viability relative to mock": 0.54, "caspase activity relative to mock": 2.62, "viability hit class": "reduced viability", "caspase hit class": "caspase activation", "Outcome": "active"}
{"gene knocked down": "TACC1 (transforming acidic coiled-coil containing protein 1)", "reagent no.": 1, "viability relative to mock": 0.94, "caspase activity relative to mock": 2.18, "viability hit class": "no change", "caspase hit class": "no change", "Outcome": "inactive"}
{"gene knocked down": "TACC1 (transforming acidic coiled-coil containing protein 1)", "reagent no.": 2, "viability relative to mock": 0.98, "caspase activity relative to mock": 1.18, "viability hit class": "no change", "caspase hit class": "no change", "Outcome": "inactive"}
{"gene knocked down": "TACC1 (transforming acidic coiled-coil containing protein 1)", "reagent no.": 3, "viability relative to mock": 0.91, "caspase activity relative to mock": 1.2, "viability hit class": "no change", "caspase hit class": "no change", "Outcome": "inactive"}
{"gene knocked down": "TACC1 (transforming acidic coiled-coil containing protein 1)", "reagent no.": 4, "viability relative to mock": 0.77, "caspase activity relative to mock": 3.21, "viability hit class": "no change", "caspase hit class": "caspase activation", "Outcome": "active"}
{"gene knocked down": "TRHR (thyrotropin releasing hormone receptor)", "reagent no.": 1, "viability relative to mock": 0.89, "caspase activity relative to mock": 0.96, "viability hit class": "no change", "caspase hit class": "no change", "Outcome": "inactive"}
{"gene knocked down": "TRHR (thyrotropin releasing hormone receptor)", "reagent no.": 2, "viability relative to mock": 0.44, "caspase activity relative to mock": 1.87, "viability hit class": "reduced viability", "caspase hit class": "no change", "Outcome": "active"}
{"gene knocked down": "TRHR (thyrotropin releasing hormone receptor)", "reagent no.": 3, "viability relative to mock": 0.84, "caspase activity relative to mock": 0.89, "viability hit class": "no change", "caspase hit class": "no change", "Outcome": "inactive"}
{"gene knocked down": "TRHR (thyrotropin releasing hormone receptor)", "reagent no.": 4, "viability relative to mock": 0.98, "caspase activity relative to mock": 1.1, "viability hit class": "no change", "caspase hit class": "no change", "Outcome": "inactive"}
{"gene knocked down": "KDM5D (lysine demethylase 5D)", "reagent no.": 1, "viability relative to mock": 0.92, "caspase activity relative to mock": 1.23, "viability hit class": "no change", "caspase hit class": "no change", "Outcome": "inactive"}
{"gene knocked down": "KDM5D (lysine demethylase 5D)", "reagent no.": 2, "viability relative to mock": 0.88, "caspase activity relative to mock": 1.08, "viability hit class": "no change", "caspase hit class": "no change", "Outcome": "inactive"}
{"gene knocked down": "KDM5D (lysine demethylase 5D)", "reagent no.": 3, "viability relative to mock": 0.88, "caspase activity relative to mock": 1.05, "viability hit class": "no change", "caspase hit class": "no change", "Outcome": "inactive"}
{"gene knocked down": "KDM5D (lysine demethylase 5D)", "reagent no.": 4, "viability relative to mock": 0.82, "caspase activity relative to mock": 0.76, "viability hit class": "no change", "caspase hit class": "no change", "Outcome": "inactive"}
{"gene knocked down": "XKR6 (XK related 6)", "reagent no.": 1, "viability relative to mock": 1.02, "caspase activity relative to mock": 0.99, "viability hit class": "no change", "caspase hit class": "no change", "Outcome": "inactive"}
{"gene knocked down": "XKR6 (XK related 6)", "reagent no.": 2, "viability relative to mock": 0.24, "caspase activity relative to mock": 2.79, "viability hit class": "reduced viability", "caspase hit class": "caspase activation", "Outcome": "active"}
{"gene knocked down": "XKR6 (XK related 6)", "reagent no.": 3, "viability relative to mock": 0.78, "caspase activity relative to mock": 2.02, "viability hit class": "no change", "caspase hit class": "no change", "Outcome": "inactive"}
{"gene knocked down": "XKR6 (XK related 6)", "reagent no.": 4, "viability relative to mock": 0.73, "caspase activity relative to mock": 1.83, "viability hit class": "no change", "caspase hit class": "no change", "Outcome": "inactive"}
{"gene knocked down": "EIF3L (eukaryotic translation initiation factor 3 subunit L)", "reagent no.": 1, "viability relative to mock": 0.9, "caspase activity relative to mock": 2.29, "viability hit class": "no change", "caspase hit class": "no change", "Outcome": "inactive"}
{"gene knocked down": "EIF3L (eukaryotic translation initiation factor 3 subunit L)", "reagent no.": 2, "viability relative to mock": 0.76, "caspase activity relative to mock": 2.67, "viability hit class": "no change", "caspase hit class": "caspase activation", "Outcome": "active"}
{"gene knocked down": "EIF3L (eukaryotic translation initiation factor 3 subunit L)", "reagent no.": 3, "viability relative to mock": 0.91, "caspase activity relative to mock": 1.25, "viability hit class": "no change", "caspase hit class": "no change", "Outcome": "inactive"}
{"gene knocked down": "EIF3L (eukaryotic translation initiation factor 3 subunit L)", "reagent no.": 4, "viability relative to mock": 0.87, "caspase activity relative to mock": 1.46, "viability hit class": "no change", "caspase hit class": "no change", "Outcome": "inactive"}
{"gene knocked down": "AIFM2 (AIF family member 2, ferroptosis suppressor)", "reagent no.": 1, "viability relative to mock": 0.11, "caspase activity relative to mock": 2.06, "viability hit class": "no change", "caspase hit class": "no change", "Outcome": "inactive"}
{"gene knocked down": "AIFM2 (AIF family member 2, ferroptosis suppressor)", "reagent no.": 2, "viability relative to mock": 0.58, "caspase activity relative to mock": 2.1, "viability hit class": "no change", "caspase hit class": "no change", "Outcome": "inactive"}
{"gene knocked down": "AIFM2 (AIF family member 2, ferroptosis suppressor)", "reagent no.": 3, "viability relative to mock": 0.82, "caspase activity relative to mock": 1.77, "viability hit class": "no change", "caspase hit class": "no change", "Outcome": "inactive"}
{"gene knocked down": "AIFM2 (AIF family member 2, ferroptosis suppressor)", "reagent no.": 4, "viability relative to mock": 0.71, "caspase activity relative to mock": 2.05, "viability hit class": "no change", "caspase hit class": "no change", "Outcome": "inactive"}

Hits (from the list above):
{"gene knocked down": "ATP6V1B2 (ATPase H+ transporting V1 subunit B2)", "reagent no.": 2, "viability relative to mock": 0.33, "caspase activity relative to mock": 4.65, "viability hit class": "reduced viability", "caspase hit class": "caspase activation", "Outcome": "active"}
{"gene knocked down": "ATP6V1B2 (ATPase H+ transporting V1 subunit B2)", "reagent no.": 4, "viability relative to mock": 0.54, "caspase activity relative to mock": 2.62, "viability hit class": "reduced viability", "caspase hit class": "caspase activation", "Outcome": "active"}
{"gene knocked down": "TACC1 (transforming acidic coiled-coil containing protein 1)", "reagent no.": 4, "viability relative to mock": 0.77, "caspase activity relative to mock": 3.21, "viability hit class": "no change", "caspase hit class": "caspase activation", "Outcome": "active"}
{"gene knocked down": "TRHR (thyrotropin releasing hormone receptor)", "reagent no.": 2, "viability relative to mock": 0.44, "caspase activity relative to mock": 1.87, "viability hit class": "reduced viability", "caspase hit class": "no change", "Outcome": "active"}
{"gene knocked down": "XKR6 (XK related 6)", "reagent no.": 2, "viability relative to mock": 0.24, "caspase activity relative to mock": 2.79, "viability hit class": "reduced viability", "caspase hit class": "caspase activation", "Outcome": "active"}
{"gene knocked down": "EIF3L (eukaryotic translation initiation factor 3 subunit L)", "reagent no.": 2, "viability relative to mock": 0.76, "caspase activity relative to mock": 2.67, "viability hit class": "no change", "caspase hit class": "caspase activation", "Outcome": "active"}
